# Some entries share one result that the patent states for a list of compounds.
# The chains behind the UniProt entries cited, without tags or fusion partners.
# UniProt Q9NYA1, whole entry: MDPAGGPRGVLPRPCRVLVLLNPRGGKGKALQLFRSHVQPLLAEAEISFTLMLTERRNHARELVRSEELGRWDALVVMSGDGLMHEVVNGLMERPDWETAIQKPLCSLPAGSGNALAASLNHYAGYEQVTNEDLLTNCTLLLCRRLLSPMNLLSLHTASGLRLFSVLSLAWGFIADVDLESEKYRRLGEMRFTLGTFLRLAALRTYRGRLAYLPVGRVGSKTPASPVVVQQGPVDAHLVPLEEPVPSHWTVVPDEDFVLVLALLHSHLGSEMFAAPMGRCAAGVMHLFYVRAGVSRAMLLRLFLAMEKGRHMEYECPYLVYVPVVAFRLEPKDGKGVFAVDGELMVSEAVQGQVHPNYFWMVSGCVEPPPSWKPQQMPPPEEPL
# Biological target: T1, purified human SK (Homo sapiens, UniProt Q9NYA1)
# T1 construct: glutathione-S-transferase (GST); made in house; host or cells: bacteria (PGEX bacterial expression vector, Pharmacia)
# Experiment: ATP competition assays (KM for ATP and Vmax)
# Assay type: biochemical
smiles,measurement,value
"O=C(N/N=C/c1c(O)ccc2ccccc12)c1cc(-c2ccc3ccccc3c2)n[nH]1 [Compound 2, 5-Naphthalen-2-yl-2H-pyrazole-3-carboxylic acid (2-hydroxy-naphthalen-1-ylmethylene)-hydrazide]",mechanism of SK inhibition (ATP binding site competition),binding to a site other than the ATP binding site

# — patent publication US7220764B2, “Sphingosine kinase inhibitors” (The Pennsylvania State University Research Foundation, priority 2002, dated 2007)
